# Measurements taken from PubChem BioAssay AID1439 (NMMLSC, 2008).
# Sequences of proteins named here, by UniProt entry; tags and fusion partners are left off.
# UniProt P09471, whole entry, looked up: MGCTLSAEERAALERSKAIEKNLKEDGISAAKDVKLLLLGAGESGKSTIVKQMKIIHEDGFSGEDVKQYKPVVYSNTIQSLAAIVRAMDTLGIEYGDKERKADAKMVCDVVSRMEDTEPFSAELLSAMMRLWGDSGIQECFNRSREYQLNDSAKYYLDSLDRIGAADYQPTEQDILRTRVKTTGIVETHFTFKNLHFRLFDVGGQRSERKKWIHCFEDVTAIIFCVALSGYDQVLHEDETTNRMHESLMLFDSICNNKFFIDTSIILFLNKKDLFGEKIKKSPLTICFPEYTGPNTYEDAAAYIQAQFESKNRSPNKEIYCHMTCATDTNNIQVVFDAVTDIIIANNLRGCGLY
# In all, about 220,000 compounds went through this assay and about 770 (0.35%) were called active. Inconclusive results, whose numbers are uncertain, are shown with a selection of clear calls. No stated cut-off is given here; in the data, active means binding response below about 49% or above about 150%; inconclusive means no clear call, values can overlap the other calls; inactive means in between.
# Target: Guanine nucleotide-binding protein G(o) subunit alpha (Homo sapiens) (UniProt P09471)
# Assay: RGS7-Galphao binding modulators, primary screen, biochemical, multiplexed bead flow cytometry (AID 1439);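 further: fluorescent Galphao held in activated GDP-AlF4 state binding bead-coupled RGS7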
# Settings: at 10 µM, actives lie on both sides
row,Compound,binding response (% of control)
1,O=C(O)c1ccc2c(c1)C(=O)N(c1ccccc1-c1ccccc1)C2=O,inconclusive: 99.2%
2,CN(C(=O)COc1ccc(Br)cc1Cl)C1CCCCC1,inconclusive: 103%
3,Cn1c(=O)c2c(nc(SCC(=O)c3ccccc3F)n2C)n(C)c1=O,inactive: 104%
4,COc1cc(/C=N/n2c(-c3ccccc3)n[nH]c2=S)ccc1O,inconclusive: 109%
5,COc1ccccc1NC(=O)CSc1nnc(-c2ccncc2)o1,inactive: 98.3%
6,S=C(NCCc1ccccc1)N1CCn2cccc2C1c1cccnc1 (stereo not drawn),inactive: 99.7%
7,S=C(NCCN1CCOCC1)NC1CCCC1,inconclusive: 124%
8,COc1ccc(C(=S)N2CCN(c3ccccc3C)CC2)cc1,inconclusive: 367%
9,O=C(CSc1nnc(C2CC2)n1Cc1ccccc1)NCc1ccccc1,inactive: 101%
10,COc1ccc(Nc2nnc(SCC(=O)c3cc4ccccc4o3)s2)cc1,inconclusive: 102%
11,CCOC(=O)N1CCc2c(sc3ncn(C)c(=O)c23)C1,inconclusive: 235%
12,Cc1c(Cl)cccc1NC(=O)CC1Sc2ccccc2NC1=O (stereo not drawn),inconclusive: -68.8%
13,COc1ccc(-n2ncc(C(=O)N3CCN(c4ccc(F)cc4)CC3)c2C)cc1,inconclusive: 108%
14,O=C(O)c1ccc2nnn(O)c2c1,inconclusive: 127%
15,CCCS(=O)(=O)C/C(N)=N/OC(=O)c1ccccc1Cl,inconclusive: 91.2%
16,CC(C)N(CCNCC(O)COc1ccc(C(C)(C)c2ccccc2)cc1)C(C)C (stereo not drawn),inconclusive: 111%
17,CCC(C(=O)NC(C)(C)C)N(Cc1cccs1)C(=O)CNS(=O)(=O)c1ccccc1 (stereo not drawn),inconclusive: 91.1%
18,CSC1=N/C(=C/c2cccnc2)C(=O)N1Cc1ccccc1,inconclusive: 461%
19,CC[N+](C)(CC)CCC/C(=N/O)C(O)(c1ccccc1)c1ccccc1,inconclusive: 131%
20,Cn1nccc1NC(=O)c1nccnc1C(=O)O,inconclusive: 56.5%
21,COc1cc(C2NC(=S)NC(C)=C2C(=O)Nc2cc(C)cc(C)c2)ccc1O (stereo not drawn),inconclusive: 100%
22,CN1CC(=O)N(CC(=O)Nc2ccc3c(c2)CCC3)C1=O,inactive: 97.9%
23,Cn1c(C(=O)c2ccncc2)cc2ccccc21,inconclusive: 80.4%
24,CSc1ncc(CN2CCc3c([nH]c4ccccc34)C2c2cccc(O)c2)cn1 (stereo not drawn),inactive: 104%

# Molecules shown so far containing fluorine (two):
row,Compound,binding response (% of control)
3,Cn1c(=O)c2c(nc(SCC(=O)c3ccccc3F)n2C)n(C)c1=O,inactive: 104%
13,COc1ccc(-n2ncc(C(=O)N3CCN(c4ccc(F)cc4)CC3)c2C)cc1,inconclusive: 108%

# Entries from the list above with two or more sulfur atoms (2):
row,Compound,binding response (% of control)
10,COc1ccc(Nc2nnc(SCC(=O)c3cc4ccccc4o3)s2)cc1,inconclusive: 102%
17,CCC(C(=O)NC(C)(C)C)N(Cc1cccs1)C(=O)CNS(=O)(=O)c1ccccc1 (stereo not drawn),inconclusive: 91.1%

# (listing goes on)

row,Compound,binding response (% of control)
1,Cc1ccc(NC(=O)c2cccnc2)cc1S(=O)(=O)N(C)C,inconclusive: 97.1%
2,Clc1cc2nc[nH]c2cc1Cl,inconclusive: 87.5%
3,Cc1ccc(C(=O)NC(C)C(c2cccs2)N2CCCC2)s1 (stereo not drawn),inconclusive: 88.4%
4,CC1CCC(C(C)C)C(OC(=O)Cn2nnc3c(cnn3-c3ccccc3)c2=O)C1 (stereo not drawn),inconclusive: 87.3%
5,Cc1cc(C(=O)NN)n[nH]1,inconclusive: 85.4%
6,CCOC(=O)C1(Cc2cccc(F)c2)CCN(CC(O)CO)CC1 (stereo not drawn),inconclusive: 101%
7,O=C(O)c1cc(-c2cccs2)nn1-c1cccc(Cl)c1,inconclusive: 68.6%
8,C/C(=N/NC(=O)CNC(=O)CCc1ccccc1)c1ccc(Cl)c(Cl)c1,inconclusive: 77.2%
9,COC(=O)c1cccc(NC(N)=S)c1,inconclusive: 125%
10,CC(=O)Nc1ccccc1NC(=O)c1ccccc1,inconclusive: 114%
11,Cc1cc(=O)n2[nH]c(-c3ccsc3-n3c(C)ccc3C)cc2n1,inconclusive: 1.96%
12,Cc1cccc(Nc2ncnc(N)c2[N+](=O)[O-])n1,inconclusive: 101%
13,CCN(CC)CCN1C(=O)c2oc3ccc(F)cc3c(=O)c2C1c1ccncc1 (stereo not drawn),inconclusive: 135%
14,Cc1cccc2c(=O)cc(C)n(CC(N)=O)c12,inconclusive: 98.9%
15,N#CCC(=O)N/N=C/c1cn(Cc2ccc3ccccc3c2)c2ccccc12,inconclusive: 35%
16,Cc1ccc(Nc2nc(Cl)c(C=O)s2)cc1,inconclusive: 38.3%
17,Cc1ccccc1SCC(=O)Nc1cc(S(=O)(=O)N2CCOCC2)ccc1N1CCOCC1,inconclusive: 142%
18,Oc1ccccc1/C=N/n1cnn(Cc2ccccc2Cl)c1=S,inactive: 107%
19,CCOC(=O)C1=C(CNCc2ccc(C)cc2)NC(=O)NC1c1cc(C)ccc1C (stereo not drawn),inactive: 94.7%
20,N/C(=N\N=C\c1cccc(O)c1)c1nonc1N,inconclusive: 111%
21,CCOC(=O)/C(C#N)=C/Nc1ccsc1C(C)=O,inconclusive: -13.4%
22,C/C(=N\NC(=O)c1cc([N+](=O)[O-])cc([N+](=O)[O-])c1)c1ccco1,inconclusive: 110%
23,COC(=O)[C@@H]1C[C@H]2CC[C@H](O)C[C@H]2N1Cc1ccc(C(C)(C)C)cc1,inconclusive: 118%
24,CCNc1nc(NC(C)(C)C)nc(SCC(N)=O)n1,inactive: 99%

row,Compound,binding response (% of control)
1,O=C1c2cccnc2C(=O)N1CNc1ccc(Cl)cc1,inconclusive: 94.1%
2,COc1ccc(C(O)P(=O)(OCCC(C)C)c2ccc(N(C)C)cc2)cc1OC (stereo not drawn),inconclusive: 608%
3,O=C1N=c2ccccc2=C1c1sc(NS(=O)(=O)Cc2ccccc2)nc1O,inconclusive: 107%
4,CSc1cccc(NC(=O)CCc2ccccc2)c1,inconclusive: 118%
5,CN(C)S(=O)(=O)c1cccc(C(=O)Nc2ccc(S(=O)(=O)N3CCCC3)cc2)c1,inconclusive: 112%
6,COc1ccc(-n2c(SCC(N)=O)nnc2-c2cccnc2)cc1,inactive: 103%
7,COc1ccccc1NS(=O)(=O)c1ccc(Cl)c(NC(=O)CN2C(=O)c3ccccc3C2=O)c1,inactive: 102%
8,CCc1cc(CNC(=O)CCc2nnc(CCCc3ccccc3)o2)on1,inactive: 108%
9,CC(C)(C)NC(=O)NC(=O)COC(=O)c1cccc(S(=O)(=O)N2CCCCC2)c1,inactive: 101%
10,Cc1cc(C(=O)OCC(=O)NC(=O)c2cccn2C)c2ccccc2n1,inconclusive: 143%
11,CCOC(=O)c1[nH]cnc1C(=O)NCc1ccccc1,inconclusive: -356%
12,O=C1/C(=C/c2ccncc2)SC(=S)N1N1CCOCC1,inconclusive: 110%
13,Fc1ccc(NC(=S)N2CCN(C/C=C/c3ccccc3)CC2)c(F)c1,inconclusive: 83.8%
14,Cc1cccc(OCc2nnc(SCC(=O)Nc3ncc(C)s3)o2)c1,inconclusive: 98.7%
15,CCCCNC(=O)/C=C/c1ccc(S(=O)(=O)Nc2ccc(OC)cc2)cc1,inconclusive: 103%
16,C[C@H](NC(=O)c1nc[nH]c1C(=O)N[C@@H](CCCCNC(=O)OC(C)(C)C)C(=O)OC(C)(C)C)C(=O)OC(C)(C)C,inconclusive: 109%
17,Cn1c(=O)[nH]c(=O)c2[nH]c(NCCCN3CCOCC3)nc21,inactive: 105%
18,CC(C)[C@@H](CO)NC(=O)c1ccc2c3n(nc2c1)-c1ccc(Cl)cc1CO3,inconclusive: 108%
19,CC1(C)CC(Nc2ccc(Nc3ccccc3)cc2)CC(C)(C)N1,inconclusive: 80.1%
20,C=CCNC(=S)Nc1ccc(N(C)C)cc1,inconclusive: 98.7%
21,Cc1ccc(N/C=C/c2onc(C)c2[N+](=O)[O-])cc1,inconclusive: 125%
22,COc1cccc(Cn2c(C3CC3)nc3ccc(NC(=O)c4ccco4)cc3c2=O)c1,active: 579% [activator]
23,O=C(Oc1ccc[nH]c1=O)c1cc([N+](=O)[O-])cc([N+](=O)[O-])c1,inconclusive: 75%
24,CSC(=O)NC(=O)NC(=O)c1ccc([N+](=O)[O-])cc1,inconclusive: 150%

row,Compound,binding response (% of control)
1,CC(=O)Nc1ccc(/C=N/NC(=O)c2cc(-c3ccco3)nc3ccccc23)cc1,inconclusive: 108%
2,CC(C)=CCC(C)(C)/C=N/NC(N)=O,inconclusive: 102%
3,Cc1ccccc1/[N+]([O-])=C/c1cccs1,inconclusive: 90.6%
4,CC(C)(C)NS(=O)(=O)c1ccc(NC(=O)C2CCCCC2)cc1,inconclusive: 107%
5,Cn1c(=O)[nH]c(=O)c2c1nc(CN1CCN(c3ccccc3F)CC1)n2CCc1ccccc1,inconclusive: 136%
6,O=C(/C=C/Nc1ccc(S(=O)(=O)Nc2cnc3ccccc3n2)cc1)c1cccnc1,inconclusive: 87.6%
7,CC1CCCC(C)N1C(=O)COc1ccc(C(=O)Nc2ccccc2N2CCOCC2)cc1 (stereo not drawn),inactive: 97.5%
8,O=C(CNc1n[nH]c(=O)[nH]c1=O)N/N=C/C=C/c1ccccc1,inconclusive: 121%
9,CCCN1C(=O)N(c2cccc(C)c2)C(C)(O)CC1(C)C (stereo not drawn),inconclusive: 43.8%
10,O=C(CSC1=NC(=O)C(c2ccccc2)C(=O)N1)Nc1ccccc1[N+](=O)[O-] (stereo not drawn),inconclusive: 106%
11,Cc1ccc(NC(=O)CN(C)S(=O)(=O)c2cccc3cccnc23)cc1,inactive: 63.7%
12,COc1ccc(C2/C=C\CN(C(=O)c3ccc(C)cc3)[C@H](Cc3ccccc3)C(=O)N2Cc2ccc(F)cc2)cc1 (stereo partly drawn),inconclusive: 103%
13,CC(=O)Nc1nc(C)cs1,inconclusive: 99.7%
14,Cc1cc(-c2nnc(CCC(=O)N(C)CCc3ccccc3)o2)no1,inconclusive: 183%
15,CCCC(=O)NCCCCNC(=O)CCC,inactive: 98.7%
16,Cc1nn(CC(=O)c2ccc(Br)s2)c(C)c1[N+](=O)[O-],inconclusive: 106%
17,CCOC(=O)C(C)NC(=O)Cn1ncc2c(=O)oc3ccc(C)cc3c21 (stereo not drawn),inconclusive: 110%
18,O=C(Cn1cnc(Cl)c1Cl)c1ccccc1,inconclusive: 126%
19,CCCNC(=O)COc1ncnc2sccc12,inconclusive: 108%
20,O=c1[nH][nH]c(-c2ccccc2)c1C=Nc1ccc(OC(F)(F)F)cc1,inconclusive: 106%
21,CCCCN(CCCC)CC(O)Cn1c2ccccc2c(=O)c2ccccc21 (stereo not drawn),inconclusive: 94.5%

# 2 entries drawn at random from those above, as already listed:
row,Compound,binding response (% of control)
14,Cc1cc(-c2nnc(CCC(=O)N(C)CCc3ccccc3)o2)no1,inconclusive: 183%
17,CCOC(=O)C(C)NC(=O)Cn1ncc2c(=O)oc3ccc(C)cc3c21 (stereo not drawn),inconclusive: 110%
